According to the supplement of paper PMC3682954:
Several values for one entry are separate records, joined by “and”; a condition that tells them apart may be missing. Identical values can stand only once. Counter-ions that a name gives are not always drawn. ± gives the standard deviation of the averaged measurements. This is one part of the list. Repeats are few or missing, and single values can be far off.

Tested on: RAW 264.7
Test: HMGB1-induced TNF-alpha production relative to HMGB1-stimulated control; higher = more TNF-alpha secretion (less inhibition)
Settings: stimulus: HMGB1 5 ug/ml, 18 h
[1] = compound concentration: 1 ug/ml

SMILES	HMGB1-induced TNF-alpha production (compound concentration: 3 uM)	HMGB1-induced TNF-alpha production [1]
CCN1CCCC(OC(=O)C(c2ccccc2)c2ccccc2)C1 (stereo not drawn)	97%	–
CCN1CCCC(OC(=O)C(c2ccccc2)c2ccccc2)C1 (stereo not drawn) [Piperidolate hydrochloride]	130%	–
Nc1ccc(C(=O)O)cc1	43%	–
Cc1ccc2oc(-c3ccccc3)c(O)c(=O)c2c1 [6-Methylflavonol]	–	77.5%
COc1cc(C(O)CO)ccc1OS(=O)(=O)O (stereo not drawn) [MHPG sulfate potassium]	101%	–
COC(=O)c1c(C)[nH]c(C)c1C(=O)c1ccccc1Cc1ccccc1	90.6%	–
Nc1cn([C@@H]2O[C@H](CO)[C@H](O)C2O)c(=O)[nH]c1=O (stereo partly drawn) [5-Aminouridine hydrochloride]	–	81.1%
CCCC1O[C@@H]2C[C@H]3[C@@H]4CCC5=CC(=O)C=C[C@]5(C)[C@H]4[C@@H](O)C[C@]3(C)[C@]2(C(=O)CO)O1 (stereo partly drawn)	39.4%	–
CCCC1O[C@@H]2C[C@H]3[C@@H]4CCC5=CC(=O)C=C[C@]5(C)[C@H]4[C@@H](O)C[C@]3(C)[C@]2(C(=O)CO)O1 (stereo partly drawn) [Budesonide]	34 ± 10%	–
NCCC1CCCC(CCN)N1 (stereo not drawn) [MDL 26,630 trihydrochloride]	119%	–
CCCCCCCCCCCCCCCCCCOCC(COP(=O)([O-])OCC[N+](C)(C)C)OC (stereo not drawn)	112%	–
CN1[C@@H]2CC[C@H]1CC(OC(=O)c1c[nH]c3ccccc13)C2 (stereo partly drawn) [3-Tropanyl-indole-3-carboxylate hydrochloride]	100%	–
COc1ccc(-c2oc3ccc(C)cc3c(=O)c2O)cc1OC [3',4'-Dimethoxy-3-hydroxy-6-methylflavone]	–	52.7%
CC[C@H](NC(=O)c1c(C)c(-c2ccccc2)nc2ccccc12)c1ccccc1	96.6%	–
COc1cc(/C=C/c2ccc(O)cc2)cc(OC)c1	92.5%	–
NCC(O)(CS(=O)(=O)O)c1ccc(Cl)cc1 (stereo not drawn) [2-Hydroxysaclofen]	104%	–
O=NN(CCCl)C(=O)NCCCl	103 ± 21%	–
O=NN(CCCl)C(=O)NCCCl [Carmustine]	77.8%	–
CCOC(=O)c1ncn2c1CN(C)C(=O)c1cc(F)ccc1-2 [Flumazenil]	90.2 ± 2.9%	–
CCOC(=O)c1ncn2c1CN(C)C(=O)c1cc(F)ccc1-2	102% and 90.7%	–
CC1=C(/C=C/C(C)=C/C=C/C(C)=C/C=C/C=C(C)/C=C/C=C(C)/C=C/C2=C(C)C(=O)CCC2(C)C)C(C)(C)CCC1=O [Canthaxanthin]	108%	–
O=C1O/C(=C/Br)CCC1c1cccc2ccccc12 (stereo not drawn) [Bromoenol lactone]	27.4%	–
Nc1nc(N)c2nc(CNc3ccc(C(=O)N[C@@H](CCC(=O)O)C(=O)O)cc3)cnc2n1 [Aminopterin]	90.1%	–
Nc1nc(N)c2nc(CNc3ccc(C(=O)N[C@@H](CCC(=O)O)C(=O)O)cc3)cnc2n1	72.3%	–
N[C@@H](CSCC(=O)O)C(=O)O [S-Carboxymethyl-L-cysteine]	–	72.5%

SMILES	HMGB1-induced TNF-alpha production (compound concentration: 3 uM)	HMGB1-induced TNF-alpha production [1]
CC(C(=O)O)c1cccc(C(=O)c2ccccc2)c1 (stereo not drawn) [Ketoprofen]	94.7 ± 12%	–
CC(C(=O)O)c1cccc(C(=O)c2ccccc2)c1 (stereo not drawn)	82.6%	–
NC(CCCP(=O)(O)O)C(=O)O (stereo not drawn) [D(-)-2-Amino-5-phosphonopentanoic acid]	90.6%	–
C#C[C@]1(O)CC[C@H]2[C@@H]3CCc4cc(O)ccc4[C@H]3CC[C@@]21C [Ethinylestradiol]	100%	–
C#C[C@]1(O)CC[C@H]2[C@@H]3CCc4cc(O)ccc4[C@H]3CC[C@@]21C	92% and 100%	–
CCCCN(CCCC)CCC(O)c1cc2c(Cl)cc(Cl)cc2c2cc(C(F)(F)F)ccc12 (stereo not drawn) [Halofantrine hydrochloride]	91.4%	–
Cc1occc(=O)c1O	115%	–
CO[C@H]1O[C@H](CO)C(O[C@@H]2OC(C(=O)O)[C@@H](O[C@H]3O[C@H](COS(=O)(=O)O)C(O[C@@H]4OC(C(=O)O)[C@@H](O[C@H]5O[C@H](CO)C(O[C@@H]6OC(C(=O)O)[C@@H](O[C@H]7O[C@H](COS(=O)(=O)O)C(O[C@@H]8OC(C(=O)O)=C[C@H](O)C8OS(=O)(=O)O)[C@H](O)[C@H]7NC(C)=O)[C@H](O)[C@H]6O)[C@H](O)[C@H]5NC(C)=O)[C@H](O)[C@H]4O)[C@H](O)[C@H]3NC(C)=O)[C@H](O)[C@H]2O)[C@H](O)[C@H]1NC(C)=O (stereo partly drawn)	84.8%	–
CCOC(=O)C1=C(C)NC(C)=C(C(=O)OCC)C1c1ccccc1/C=C/C(=O)OC(C)(C)C [Lacidipine]	106 ± 19%	–
CCOC(=O)C1=C(C)NC(C)=C(C(=O)OCC)C1c1ccccc1/C=C/C(=O)OC(C)(C)C	100%	–
CCOc1cc(CC(=O)N[C@@H](CC(C)C)c2ccccc2N2CCCCC2)ccc1C(=O)O [Repaglinide]	120%	–
CCOc1cc(CC(=O)N[C@@H](CC(C)C)c2ccccc2N2CCCCC2)ccc1C(=O)O	105 ± 17%	–
COc1ncnc(NS(=O)(=O)c2ccc(N)cc2)c1OC	105%	–
COc1ncnc(NS(=O)(=O)c2ccc(N)cc2)c1OC [Sulfadoxine]	120 ± 25%	–
CC(=O)OCC(=O)[C@@]1(O)[C@H](C)C[C@H]2[C@@H]3CCC4=CC(=O)C=C[C@]4(C)[C@@]3(F)[C@@H](O)C[C@@]21C	28.8%	–
CC(=O)OCC(=O)[C@@]1(O)[C@H](C)C[C@H]2[C@@H]3CCC4=CC(=O)C=C[C@]4(C)[C@@]3(F)[C@@H](O)C[C@@]21C [Dexamethasone acetate]	23.5%	–
CC(=O)OCC(=O)[C@@]1(O)[C@H](C)C[C@H]2[C@@H]3CCC4=CC(=O)C=C[C@]4(C)[C@@]3(F)[C@@H](O)C[C@@]21C [dexamethasone 21-acetate]	–	36.8%
CC1(C)CCC[C@]2(C)[C@H]3CC(=O)O[C@]3(C)CC[C@@H]12 [(3aR)-(+)-Sclareolide]	–	74.6%
COc1c(N2C[C@@H]3CCCN[C@@H]3C2)c(F)cc2c(=O)c(C(=O)O)cn(C3CC3)c12	93.5% and 96%	–
COc1c(N2C[C@@H]3CCCN[C@@H]3C2)c(F)cc2c(=O)c(C(=O)O)cn(C3CC3)c12 [Moxifloxacin]	98.7%	–
COc1ccc(C(=O)c2ccccc2)c(O)c1 [Oxybenzone]	113%	–
COc1ccc(C(=O)c2ccccc2)c(O)c1	91.9%	–
COc1ccc(C(=O)CC(=O)c2ccc(C(C)(C)C)cc2)cc1	62.2%	–
Cc1cc(NC2CCCCC2)nc(-n2nc(C)cc2C)n1	96.2%	–
CC(C)CC(N)C(=O)O (racemic) [DL-Leucine]	–	65.2%

SMILES	HMGB1-induced TNF-alpha production (compound concentration: 3 uM)	HMGB1-induced TNF-alpha production [1]
NCCSSCCN [Cystamine dihydrochloride]	80.4%	–
Nc1nc2c(ncn2COCCO)c(=O)[nH]1	91.49 ± 0.059%	–
Nc1nc2c(ncn2COCCO)c(=O)[nH]1 [Acyclovir]	90.7 ± 2.1%	–
Nc1nc2c(ncn2COCCO)c(=O)[nH]1 [Acycloguanosine]	92.6%	–
CCCCCN(CCCCC)C(=O)C(CCC(=O)O)NC(=O)c1ccc(Cl)c(Cl)c1 (stereo not drawn) [Lorglumide sodium salt]	78.8%	–
CCCCCN(CCCCC)C(=O)C(CCC(=O)O)NC(=O)c1ccc(Cl)c(Cl)c1 (stereo not drawn) [Lorglumide]	104%	–
CCCCCN(CCCCC)C(=O)C(CCC(=O)O)NC(=O)c1ccc(Cl)c(Cl)c1 (stereo not drawn)	85.3%	–
CCCCCN(CCCCC)C(=O)C(CCC(=O)O)NC(=O)c1ccc(Cl)c(Cl)c1 (stereo not drawn) [Lorglumide sodium]	109%	–
CC(C)NCC(O)c1ccc(O)c(O)c1 (stereo not drawn) [S(+)-Isoproterenol (+)-bitartrate]	59%	–
CC(C)NCC(O)c1ccc(O)c(O)c1 (stereo not drawn)	66%	–
COc1ccc2[nH]c([S@@+]([O-])Cc3ncc(C)c(OC)c3C)nc2c1 [Esomeprazole magnesium dihydrate]	78.1%	–
COc1ccc2[nH]c([S@@+]([O-])Cc3ncc(C)c(OC)c3C)nc2c1 [Esomeprazole]	84.9%	–
CC(C)(C)NC(=O)[C@@H]1C[C@@H]2CCCC[C@@H]2CN1C[C@@H](O)[C@H](Cc1ccccc1)NC(=O)[C@H](CC(N)=O)NC(=O)c1ccc2ccccc2n1	104%	–
CC(C)(C)NC(=O)[C@@H]1C[C@@H]2CCCC[C@@H]2CN1C[C@@H](O)[C@H](Cc1ccccc1)NC(=O)[C@H](CC(N)=O)NC(=O)c1ccc2ccccc2n1 [Saquinavir mesylate]	125%	–
COC(=O)C1=C(C)NC(C)=C([N+](=O)[O-])C1c1ccccc1C(F)(F)F (racemic)	77.5%	–
CC[C@H]1OC(=O)C[C@@H](O)[C@H](C)[C@@H](O[C@@H]2O[C@H](C)[C@@H](O[C@H]3C[C@@](C)(O)[C@@H](O)[C@H](C)O3)[C@H](N(C)C)[C@H]2O)[C@@H](CC=O)C[C@@H](C)C(=O)/C=C/C(C)=C/[C@@H]1CO[C@@H]1O[C@H](C)[C@@H](O)[C@@H](OC)[C@H]1OC	98.7%	–
CC[C@H]1OC(=O)C[C@@H](O)[C@H](C)[C@@H](O[C@@H]2O[C@H](C)[C@@H](O[C@H]3C[C@@](C)(O)[C@@H](O)[C@H](C)O3)[C@H](N(C)C)[C@H]2O)[C@@H](CC=O)C[C@@H](C)C(=O)/C=C/C(C)=C/[C@@H]1CO[C@@H]1O[C@H](C)[C@@H](O)[C@@H](OC)[C@H]1OC [Tylosin]	91.3 ± 18%	–
CC(C)ON([C@@H](C(=O)NO)C(C)C)S(=O)(=O)c1ccc(-c2ccccc2)cc1	97.1%	–
O=C(CCCCCCC(=O)Nc1ccccc1)NO [Vorinostat]	42.1%	–
CCc1ccc2c(-c3cccc(Cl)c3)nc(=O)n(CC)c2n1	59.1%	–
COC(=O)C1=C(C)NC(C)=C(C(=O)OC2CCCN(Cc3ccccc3)C2)C1c1cccc([N+](=O)[O-])c1 (stereo not drawn)	99.1%	–
C[C@]12C[C@H](O)[C@H]3[C@@H](CCC4=CC(=O)CC[C@@]43C)[C@@H]1CC[C@@H]2C(=O)CO [Corticosterone]	56.4 ± 5.4%	–
C[C@]12C[C@H](O)[C@H]3[C@@H](CCC4=CC(=O)CC[C@@]43C)[C@@H]1CC[C@@H]2C(=O)CO	64.2%	–
